Results are given in words; binding and its absence hold for the method and conditions named. Binding seen in cells or lysates may run through a third protein. Binding can be weak; no strength is given. Tags and fused reporters may be left off the sequences shown.
Molecular target: Mauve-mCherry (Drosophila melanogaster)
Assay: co-IP; lysate of 0-3 h embryos co-expressing Mv-mCherry and Rab5-EYFP (20 mM Tris-HCl pH 8, 110 mM KCl, 5 mM MgCl2), split and given 100 uM GDP or GppNHp, RFP-Trap-MA beads, 4 °C

B1: Rab5-EYFP (protein, UniProt Q9V3I2 1-219)
chain: MATTPRSGGASGTGTAQRPNGTSQNKSCQFKLVLLGESAVGKSSLVLRFVKGQFHEYQESTIGAAFLTQTICIEDTVVKFEIWDTAGQERYHSLAPMYYRGAQAAIVVYDIQNQDSFQRAKTWVKELHKQASPNIVIALAGNKADLSNIRVVEFDEAKQYAEENGLLFMETSAKTGMNVNDIFLAIAKKLPKNDGANNQGTSIRPTGTETNRPTNNCCK
binding: binds
